Assay results published in the supplement of paper PMC12067093, “Discovery and optimisation of a covalent ligand for TRIM25 and its application to targeted protein ubiquitination” (Chemical Science, 2025).
This is one part of the list.

By UniProt entry, the sequences of proteins in these tests, tags left out. Where a name states a change or a piece, a line headed by the entry shows the natural chain unless it says otherwise.
UniProt P10599: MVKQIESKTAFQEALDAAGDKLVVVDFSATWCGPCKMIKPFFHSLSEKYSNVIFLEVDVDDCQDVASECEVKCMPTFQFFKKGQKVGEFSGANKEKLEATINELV
UniProt Q9UBT2: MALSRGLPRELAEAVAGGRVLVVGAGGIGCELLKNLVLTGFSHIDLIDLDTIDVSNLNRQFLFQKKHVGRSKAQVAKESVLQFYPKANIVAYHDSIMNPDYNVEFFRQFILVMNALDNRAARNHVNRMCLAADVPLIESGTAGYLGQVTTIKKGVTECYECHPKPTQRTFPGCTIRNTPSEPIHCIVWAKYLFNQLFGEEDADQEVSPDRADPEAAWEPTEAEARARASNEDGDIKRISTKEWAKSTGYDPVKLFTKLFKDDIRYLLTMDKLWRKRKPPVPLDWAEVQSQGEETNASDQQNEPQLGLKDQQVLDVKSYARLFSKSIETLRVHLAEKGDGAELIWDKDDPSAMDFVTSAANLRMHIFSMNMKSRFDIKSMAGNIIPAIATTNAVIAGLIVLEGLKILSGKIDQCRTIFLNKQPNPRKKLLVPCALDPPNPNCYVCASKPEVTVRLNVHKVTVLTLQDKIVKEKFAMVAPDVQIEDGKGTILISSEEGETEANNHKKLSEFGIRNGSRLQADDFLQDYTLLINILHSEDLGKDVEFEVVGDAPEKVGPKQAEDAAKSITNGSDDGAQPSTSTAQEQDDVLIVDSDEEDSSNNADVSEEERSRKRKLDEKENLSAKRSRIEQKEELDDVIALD
UniProt Q9NPG3, whole entry, looked up: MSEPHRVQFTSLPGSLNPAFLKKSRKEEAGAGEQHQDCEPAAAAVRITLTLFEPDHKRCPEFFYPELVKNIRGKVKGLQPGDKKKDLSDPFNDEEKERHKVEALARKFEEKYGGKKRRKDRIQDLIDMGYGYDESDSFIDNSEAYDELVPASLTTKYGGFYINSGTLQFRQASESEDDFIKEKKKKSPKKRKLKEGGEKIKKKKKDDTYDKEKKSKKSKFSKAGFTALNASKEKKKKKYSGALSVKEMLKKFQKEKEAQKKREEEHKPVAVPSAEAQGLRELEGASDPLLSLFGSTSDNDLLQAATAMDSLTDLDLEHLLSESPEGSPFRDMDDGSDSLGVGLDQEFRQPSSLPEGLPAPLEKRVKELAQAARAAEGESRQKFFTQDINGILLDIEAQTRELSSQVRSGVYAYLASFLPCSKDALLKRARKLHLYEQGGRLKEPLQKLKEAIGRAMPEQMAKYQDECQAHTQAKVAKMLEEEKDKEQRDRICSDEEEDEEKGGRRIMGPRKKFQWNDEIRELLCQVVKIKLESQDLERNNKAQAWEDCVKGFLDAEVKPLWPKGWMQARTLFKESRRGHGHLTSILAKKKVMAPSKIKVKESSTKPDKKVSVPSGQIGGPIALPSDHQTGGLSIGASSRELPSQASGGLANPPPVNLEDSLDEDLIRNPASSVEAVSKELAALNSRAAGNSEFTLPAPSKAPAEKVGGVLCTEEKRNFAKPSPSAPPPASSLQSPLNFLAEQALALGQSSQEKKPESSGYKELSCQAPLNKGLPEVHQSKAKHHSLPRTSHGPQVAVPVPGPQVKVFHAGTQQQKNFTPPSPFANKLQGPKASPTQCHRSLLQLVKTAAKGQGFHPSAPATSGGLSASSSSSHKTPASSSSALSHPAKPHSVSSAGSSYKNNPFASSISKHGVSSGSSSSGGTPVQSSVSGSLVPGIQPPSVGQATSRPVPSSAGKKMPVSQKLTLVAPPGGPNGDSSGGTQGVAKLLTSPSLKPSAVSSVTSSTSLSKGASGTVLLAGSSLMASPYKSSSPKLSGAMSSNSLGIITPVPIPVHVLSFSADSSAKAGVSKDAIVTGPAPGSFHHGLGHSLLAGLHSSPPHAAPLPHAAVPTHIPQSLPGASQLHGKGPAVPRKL
UniProt Q9NNW7, whole entry, looked up: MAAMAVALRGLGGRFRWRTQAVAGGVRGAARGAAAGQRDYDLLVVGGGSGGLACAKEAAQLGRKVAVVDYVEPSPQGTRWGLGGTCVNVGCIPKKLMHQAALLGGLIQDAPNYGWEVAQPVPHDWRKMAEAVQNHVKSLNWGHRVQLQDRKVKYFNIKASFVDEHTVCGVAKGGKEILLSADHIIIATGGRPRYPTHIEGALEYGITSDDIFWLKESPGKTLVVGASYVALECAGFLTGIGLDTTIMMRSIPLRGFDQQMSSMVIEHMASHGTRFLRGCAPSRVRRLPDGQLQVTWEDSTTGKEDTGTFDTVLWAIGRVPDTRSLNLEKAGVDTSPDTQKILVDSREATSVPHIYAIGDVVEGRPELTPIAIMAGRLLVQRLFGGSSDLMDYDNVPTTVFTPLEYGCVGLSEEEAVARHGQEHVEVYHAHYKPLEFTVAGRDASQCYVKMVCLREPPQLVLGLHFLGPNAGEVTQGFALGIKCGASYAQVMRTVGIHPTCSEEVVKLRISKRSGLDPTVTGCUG
UniProt Q6IPR3: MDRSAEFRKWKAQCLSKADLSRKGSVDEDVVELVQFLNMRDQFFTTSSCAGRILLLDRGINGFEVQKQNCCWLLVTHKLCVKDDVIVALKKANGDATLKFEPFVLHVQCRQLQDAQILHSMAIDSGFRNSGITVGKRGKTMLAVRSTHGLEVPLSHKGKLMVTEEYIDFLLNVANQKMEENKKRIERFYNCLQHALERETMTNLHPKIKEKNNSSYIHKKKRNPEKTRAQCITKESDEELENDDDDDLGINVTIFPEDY
UniProt O95071: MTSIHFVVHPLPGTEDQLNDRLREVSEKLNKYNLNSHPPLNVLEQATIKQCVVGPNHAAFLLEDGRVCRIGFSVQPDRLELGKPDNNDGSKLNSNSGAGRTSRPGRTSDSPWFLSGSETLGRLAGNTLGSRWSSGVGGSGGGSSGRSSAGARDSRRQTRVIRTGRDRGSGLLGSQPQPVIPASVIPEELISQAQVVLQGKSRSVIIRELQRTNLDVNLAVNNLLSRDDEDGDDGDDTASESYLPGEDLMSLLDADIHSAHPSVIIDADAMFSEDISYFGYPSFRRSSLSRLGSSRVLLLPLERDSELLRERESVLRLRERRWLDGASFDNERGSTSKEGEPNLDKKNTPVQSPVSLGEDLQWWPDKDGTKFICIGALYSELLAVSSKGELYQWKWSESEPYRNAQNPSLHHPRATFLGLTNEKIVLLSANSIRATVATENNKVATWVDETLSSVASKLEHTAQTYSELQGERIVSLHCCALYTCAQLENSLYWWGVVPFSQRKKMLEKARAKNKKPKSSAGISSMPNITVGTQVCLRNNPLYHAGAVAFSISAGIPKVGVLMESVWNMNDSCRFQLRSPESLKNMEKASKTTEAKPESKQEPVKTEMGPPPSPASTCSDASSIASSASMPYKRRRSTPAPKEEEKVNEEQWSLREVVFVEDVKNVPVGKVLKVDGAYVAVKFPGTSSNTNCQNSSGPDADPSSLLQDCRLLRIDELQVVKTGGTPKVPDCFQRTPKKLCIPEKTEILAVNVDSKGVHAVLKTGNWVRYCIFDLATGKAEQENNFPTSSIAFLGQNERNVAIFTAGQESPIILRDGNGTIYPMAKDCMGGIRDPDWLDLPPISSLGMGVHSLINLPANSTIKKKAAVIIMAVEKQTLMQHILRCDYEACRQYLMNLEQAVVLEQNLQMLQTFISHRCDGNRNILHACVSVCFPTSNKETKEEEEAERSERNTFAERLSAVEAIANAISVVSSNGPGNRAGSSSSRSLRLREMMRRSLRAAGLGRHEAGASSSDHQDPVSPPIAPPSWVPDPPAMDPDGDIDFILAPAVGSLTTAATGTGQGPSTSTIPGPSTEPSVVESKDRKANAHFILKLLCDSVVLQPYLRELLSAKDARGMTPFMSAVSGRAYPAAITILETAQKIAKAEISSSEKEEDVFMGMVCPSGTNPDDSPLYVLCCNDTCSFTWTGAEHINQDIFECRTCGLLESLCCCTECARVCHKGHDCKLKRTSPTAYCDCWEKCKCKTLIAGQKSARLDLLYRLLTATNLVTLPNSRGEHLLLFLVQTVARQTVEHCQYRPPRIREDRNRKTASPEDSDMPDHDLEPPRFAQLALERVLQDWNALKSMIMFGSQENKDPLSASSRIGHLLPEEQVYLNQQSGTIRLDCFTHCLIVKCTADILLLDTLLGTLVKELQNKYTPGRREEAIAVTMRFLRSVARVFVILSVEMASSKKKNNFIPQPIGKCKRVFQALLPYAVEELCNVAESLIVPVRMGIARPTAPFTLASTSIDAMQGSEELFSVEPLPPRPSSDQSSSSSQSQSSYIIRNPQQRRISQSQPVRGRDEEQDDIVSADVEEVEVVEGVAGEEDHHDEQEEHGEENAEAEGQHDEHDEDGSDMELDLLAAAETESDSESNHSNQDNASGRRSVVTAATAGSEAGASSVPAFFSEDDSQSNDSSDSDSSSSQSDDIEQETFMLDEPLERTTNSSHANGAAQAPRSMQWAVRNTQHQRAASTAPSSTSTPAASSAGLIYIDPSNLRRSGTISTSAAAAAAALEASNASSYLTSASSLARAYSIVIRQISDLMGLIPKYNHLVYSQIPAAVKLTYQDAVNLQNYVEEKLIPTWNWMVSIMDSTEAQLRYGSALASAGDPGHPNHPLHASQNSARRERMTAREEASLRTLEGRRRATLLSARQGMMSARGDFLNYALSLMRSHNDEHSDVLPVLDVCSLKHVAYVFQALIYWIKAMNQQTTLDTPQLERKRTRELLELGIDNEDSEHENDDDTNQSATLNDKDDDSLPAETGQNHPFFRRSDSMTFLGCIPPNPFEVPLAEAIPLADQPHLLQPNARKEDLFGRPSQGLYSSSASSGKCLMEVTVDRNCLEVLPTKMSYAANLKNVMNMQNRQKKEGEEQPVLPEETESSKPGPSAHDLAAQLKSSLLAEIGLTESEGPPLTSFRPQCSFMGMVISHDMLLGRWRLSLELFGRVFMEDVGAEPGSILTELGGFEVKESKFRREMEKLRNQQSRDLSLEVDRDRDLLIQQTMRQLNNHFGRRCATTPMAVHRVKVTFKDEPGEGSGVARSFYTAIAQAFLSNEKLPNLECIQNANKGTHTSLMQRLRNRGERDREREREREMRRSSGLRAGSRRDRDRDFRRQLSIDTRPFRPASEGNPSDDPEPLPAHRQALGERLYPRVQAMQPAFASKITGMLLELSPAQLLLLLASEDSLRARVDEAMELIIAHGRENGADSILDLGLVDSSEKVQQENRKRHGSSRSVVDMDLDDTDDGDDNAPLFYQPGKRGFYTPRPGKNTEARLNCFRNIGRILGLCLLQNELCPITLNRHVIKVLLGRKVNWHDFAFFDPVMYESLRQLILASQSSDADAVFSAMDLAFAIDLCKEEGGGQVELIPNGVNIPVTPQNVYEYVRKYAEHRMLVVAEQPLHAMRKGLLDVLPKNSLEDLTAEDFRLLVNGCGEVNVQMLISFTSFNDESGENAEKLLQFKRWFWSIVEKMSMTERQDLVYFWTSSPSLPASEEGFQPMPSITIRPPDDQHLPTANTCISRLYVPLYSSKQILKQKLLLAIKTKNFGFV
UniProt P26368, whole entry, looked up: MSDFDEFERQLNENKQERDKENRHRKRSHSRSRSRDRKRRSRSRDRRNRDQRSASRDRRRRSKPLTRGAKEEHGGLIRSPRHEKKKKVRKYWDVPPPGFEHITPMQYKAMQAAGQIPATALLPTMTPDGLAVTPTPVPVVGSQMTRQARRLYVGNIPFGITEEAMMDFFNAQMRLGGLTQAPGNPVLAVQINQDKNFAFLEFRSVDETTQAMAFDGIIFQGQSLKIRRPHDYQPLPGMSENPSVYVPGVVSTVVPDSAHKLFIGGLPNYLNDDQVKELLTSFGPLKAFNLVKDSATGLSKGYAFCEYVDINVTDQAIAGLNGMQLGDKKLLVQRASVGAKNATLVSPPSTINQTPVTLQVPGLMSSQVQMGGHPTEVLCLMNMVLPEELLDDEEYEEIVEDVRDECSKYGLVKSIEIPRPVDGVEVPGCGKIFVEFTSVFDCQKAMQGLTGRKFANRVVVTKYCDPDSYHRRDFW
UniProt P63279, whole entry, looked up: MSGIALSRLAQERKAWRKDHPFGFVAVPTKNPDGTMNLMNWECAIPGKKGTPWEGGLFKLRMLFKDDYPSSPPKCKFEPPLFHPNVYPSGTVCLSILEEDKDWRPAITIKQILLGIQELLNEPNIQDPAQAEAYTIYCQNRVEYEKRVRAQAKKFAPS
UniProt Q9NZ09: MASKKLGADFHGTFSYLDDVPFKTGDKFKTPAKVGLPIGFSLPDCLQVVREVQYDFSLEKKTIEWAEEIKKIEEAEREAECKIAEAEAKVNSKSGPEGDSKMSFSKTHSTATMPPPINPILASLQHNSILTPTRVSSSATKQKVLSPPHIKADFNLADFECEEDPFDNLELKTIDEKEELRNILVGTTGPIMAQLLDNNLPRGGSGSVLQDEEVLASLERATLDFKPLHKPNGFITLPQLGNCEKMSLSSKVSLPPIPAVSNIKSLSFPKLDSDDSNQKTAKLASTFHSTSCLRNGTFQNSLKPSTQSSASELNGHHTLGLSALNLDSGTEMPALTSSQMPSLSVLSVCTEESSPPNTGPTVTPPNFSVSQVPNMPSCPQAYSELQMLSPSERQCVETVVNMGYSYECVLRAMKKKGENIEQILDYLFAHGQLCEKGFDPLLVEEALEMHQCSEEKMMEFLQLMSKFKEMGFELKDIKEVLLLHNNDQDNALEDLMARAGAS

Compound: Cc1cc(ccc1-c1ccccc1)C(=O)N1CCCN(CC1)C(=O)CCl [compound 10]
Assay: probe-labelled cysteine peptide fold change vs DMSO (competition) (log2 fold change); higher = less target engagement (more negative = stronger competition)
Settings: THP-1, incubation time: 4 h
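Also: competitive profiling in live THP-1 cells: cysteine peptides tagged with an iodoacetamide desthiobiotin (IA-DTB) probe, intensity after compound treatment relative to DMSO-treated cells.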

Target	probe-labelled cysteine peptide fold change (10 µM)	probe-labelled cysteine peptide fold change (50 µM)
UBE2T_Q9NPD8_24_ELHMLATEPPPGITCWQDKDQMDDLR (UniProt Q9NPD8)	-0.422	-0.991
TXN_P10599_32_LVVVDFSATWCGPCK (UniProt P10599)	-0.415	-0.638
UBR2_Q8IWV8_837_GMYELKPECAK (UniProt Q8IWV8)	-0.143	-0.148
UBR4_Q5T4S7_4146_QAACTIVEALATIPSRK (UniProt Q5T4S7)	-0.0222	0.0202
UBA6_A0AVT1_721_ALQLLHCFPLDIR	0.0248	0.215
UBA2_Q9UBT2_185_NTPSEPIHCIVWAK (UniProt Q9UBT2)	-0.00257	0.174
UBA7_P41226_68_NLVLMGVGSLTLHDPHPTCWSDLAAQFLLSEQDLER (UniProt P41226)	0.0506	0.33
TYK2_P29597_435_LTADSSHYLCHEVAPPR (UniProt P29597)	0.0552	-0.0151
UBA7_P41226_145_HGVCFLAADTR (UniProt P41226)	0.272	-0.00263
UBA7_P41226_223_DGDLVTFSGIEGMVELNDCDPR (UniProt P41226)	0.0341	0.101
UBE4A_Q14139_175_HIFCYLYSCFQR (UniProt Q14139)	-0.0734	0.337
TYK2_P29597_278_VPVCHLR (UniProt P29597)	-0.104	-0.188
UACA_Q9BZF9_481_ALALECER (UniProt Q9BZF9)	0.0247	0.164
UBE2O_Q9C0C9_585_SNDLFPVHHLDNNEFCPGDFVVDKR (UniProt Q9C0C9)	-0.0569	-0.183
UBA6_A0AVT1_449_ACIGDTLCQK	-0.0646	0.113
U2SURP_O15042_65_ESLCDSPHQNLSRPLLENK (UniProt O15042)	0.167	-0.428
UBR2_Q8IWV8_1717_GNPLHLCK (UniProt Q8IWV8)	-0.263	-1.31
UBA5_Q9GZZ9_181_ISNGGLEEGKPVDLVLSCVDNFEAR (UniProt Q9GZZ9)	0.0224	-0.168
UBR4_Q5T4S7_4890_KQQGYSTVSHFNIVHYDCHLAAVR (UniProt Q5T4S7)	0.0563	-0.151
UBA2_Q9UBT2_161_GVTECYECHPKPTQR (UniProt Q9UBT2)	0.0536	-0.135
UBR4_Q5T4S7_4916_CNGLLPVWGPHVPESAFATCLAR (UniProt Q5T4S7)	0.0988	-0.0016
UBA7_P41226_445_QHYLLVGAGAIGCELLK (UniProt P41226)	-0.156	-0.00376
TXNRD1_Q16881_339_EYCISSDDLFSLPYCPGK (UniProt Q16881)	0.697	0.594
UBAP2_Q5T6F2_78_NQDECIVALHDCNGDVNK (UniProt Q5T6F2)	-0.0704	-0.0882
TXN_P10599_35_LVVVDFSATWCGPCK (UniProt P10599)	-0.765	-0.357
UBN1_Q9NPG3_765_ELSCQAPLNK (UniProt Q9NPG3)	-0.169	-0.168
TXN_P10599_32+35_LVVVDFSATWCGPCK (UniProt P10599)	-0.879	-0.645

Target	probe-labelled cysteine peptide fold change (10 µM)	probe-labelled cysteine peptide fold change (50 µM)
UBE3B_Q7Z3V4_311_DVCESLEGCHTLCLMGNLLHLGSLSPR (UniProt Q7Z3V4)	-0.115	-0.154
UBR7_Q8N806_155_RPYPDPEDEIPDEMIQCVVCEDWFHGR (UniProt Q8N806)	0.0312	0.0116
UBA1_P22314_234_DNPGVVTCLDEAR (UniProt P22314)	-0.225	0.0936
UBN1_Q9NPG3_467_YQDECQAHTQAK (UniProt Q9NPG3)	0.0477	-0.0227
UBAP2L_Q14157_68+75_NQDECVIALHDCNGDVNR (UniProt Q14157)	0.12	-0.158
TXNRD2_Q9NNW7_279_GCAPSR (UniProt Q9NNW7)	0.0601	1.36
UBE2E1_P51965_67_ELADITLDPPPNCSAGPK (UniProt P51965)	-0.0941	0.00198
TYW3_Q6IPR3_109_FEPFVLHVQCR (UniProt Q6IPR3)	0.105	0.148
UBA2_Q9UBT2_158+161_GVTECYECHPKPTQR (UniProt Q9UBT2)	0.136	-0.329
UBR5_O95071_1942_SHNDEHSDVLPVLDVCSLK (UniProt O95071)	-0.0432	-0.39
U2AF2_P26368_429_SIEIPRPVDGVEVPGCGK (UniProt P26368)	0.305	0.127
UBN1_Q9NPG3_837_ASPTQCHR (UniProt Q9NPG3)	-0.0699	-1.04
UBE2K_P61086_92_IWHPNISSVTGAICLDILK (UniProt P61086)	-0.124	0.58
TYK2_P29597_736_NLVHGNVCGR (UniProt P29597)	-0.00731	-0.24
UBR4_Q5T4S7_4890_QQGYSTVSHFNIVHYDCHLAAVR (UniProt Q5T4S7)	-0.0432	0.111
UBR1_Q8IWV7_1726_LHLVWQQHCIIEEIAR (UniProt Q8IWV7)	-0.0158	-0.128
UBE2I_P63279_75_CKFEPPLFHPNVYPSGTVCLSILEEDK (UniProt P63279)	0.165	0.175
UBR4_Q5T4S7_3677_CSASVPANPGVCGNCGENVYQCHK (UniProt Q5T4S7)	0.131	0.276
UBA3_Q8TBC4_139_VPNCNVVPHFNK (UniProt Q8TBC4)	-0.0131	0.115
UBR5_O95071_883_CDYEACR (UniProt O95071)	0.0126	-0.0696
UBAP1_Q9NZ09_434_KGENIEQILDYLFAHGQLCEK (UniProt Q9NZ09)	0.108	0.123
UBR4_Q5T4S7_4642_FKPYCNFDK (UniProt Q5T4S7)	-0.0874	0.238
UBAP1_Q9NZ09_434_GENIEQILDYLFAHGQLCEK (UniProt Q9NZ09)	0.223	0.368
UACA_Q9BZF9_125_LLQYNCPTEHADLQGR (UniProt Q9BZF9)	-0.133	-0.0499
UBN2_Q6ZU65_515_SGVYSHLEAFVPCNK (UniProt Q6ZU65)	0.14	-0.0231
UBR5_O95071_1291_QTVEHCQYRPPR (UniProt O95071)	0.0471	0.0177
UBA2_Q9UBT2_161_KGVTECYECHPKPTQR (UniProt Q9UBT2)	-0.0118	-0.377

Four entries from above, bar-delimited:
Target | probe-labelled cysteine peptide fold change (10 µM) | probe-labelled cysteine peptide fold change (50 µM)
UBA1_P22314_234_DNPGVVTCLDEAR (UniProt P22314) | -0.225 | 0.0936
UBN1_Q9NPG3_467_YQDECQAHTQAK (UniProt Q9NPG3) | 0.0477 | -0.0227
UBAP2L_Q14157_68+75_NQDECVIALHDCNGDVNR (UniProt Q14157) | 0.12 | -0.158
TXNRD2_Q9NNW7_279_GCAPSR (UniProt Q9NNW7) | 0.0601 | 1.36
